Assay results from article PMC11704005.
Results are given in words; binding and its absence hold for the method and conditions named. In cells and extracts the contact can be indirect. Some binding calls cover weakened binding; strength is not graded here. For some of these results: Where a sequence is shown, tags or fusion partners need not be part of it.

Sequences of proteins named here, by UniProt entry; tags and fusion partners are left off. Residues count along the entry.
UniProt O15118, residues 23-1278: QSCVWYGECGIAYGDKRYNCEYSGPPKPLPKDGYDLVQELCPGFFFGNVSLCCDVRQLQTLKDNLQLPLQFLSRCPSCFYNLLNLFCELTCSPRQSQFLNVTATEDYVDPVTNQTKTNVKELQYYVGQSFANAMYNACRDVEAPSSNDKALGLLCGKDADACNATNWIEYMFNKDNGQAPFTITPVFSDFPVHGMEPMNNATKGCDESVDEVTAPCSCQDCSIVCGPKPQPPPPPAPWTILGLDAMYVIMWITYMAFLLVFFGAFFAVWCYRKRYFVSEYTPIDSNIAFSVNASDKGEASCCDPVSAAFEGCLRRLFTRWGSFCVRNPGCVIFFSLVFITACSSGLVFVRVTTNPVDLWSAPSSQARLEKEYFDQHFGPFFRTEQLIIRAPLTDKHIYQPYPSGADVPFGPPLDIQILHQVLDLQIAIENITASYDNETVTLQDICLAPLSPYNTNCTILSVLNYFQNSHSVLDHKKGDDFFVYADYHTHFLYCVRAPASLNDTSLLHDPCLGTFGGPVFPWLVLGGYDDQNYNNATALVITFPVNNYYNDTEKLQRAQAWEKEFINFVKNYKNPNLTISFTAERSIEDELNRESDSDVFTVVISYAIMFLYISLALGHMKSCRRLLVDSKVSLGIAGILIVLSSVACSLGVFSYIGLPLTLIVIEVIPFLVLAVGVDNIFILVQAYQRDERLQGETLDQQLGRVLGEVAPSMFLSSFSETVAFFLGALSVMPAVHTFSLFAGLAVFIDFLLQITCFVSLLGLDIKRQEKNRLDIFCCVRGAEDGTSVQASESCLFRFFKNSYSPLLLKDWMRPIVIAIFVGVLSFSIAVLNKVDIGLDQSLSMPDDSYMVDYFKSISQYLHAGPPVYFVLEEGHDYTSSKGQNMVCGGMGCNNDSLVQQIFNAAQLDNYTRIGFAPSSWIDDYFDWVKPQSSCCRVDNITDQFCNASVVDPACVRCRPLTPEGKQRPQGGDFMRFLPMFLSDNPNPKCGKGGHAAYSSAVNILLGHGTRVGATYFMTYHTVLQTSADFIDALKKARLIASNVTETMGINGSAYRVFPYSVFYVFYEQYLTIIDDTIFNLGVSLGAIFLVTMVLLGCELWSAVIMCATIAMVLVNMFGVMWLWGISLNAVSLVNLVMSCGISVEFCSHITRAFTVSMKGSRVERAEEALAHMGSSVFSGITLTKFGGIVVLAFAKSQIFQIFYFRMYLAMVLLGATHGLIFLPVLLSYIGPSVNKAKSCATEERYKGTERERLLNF
UniProt O15105: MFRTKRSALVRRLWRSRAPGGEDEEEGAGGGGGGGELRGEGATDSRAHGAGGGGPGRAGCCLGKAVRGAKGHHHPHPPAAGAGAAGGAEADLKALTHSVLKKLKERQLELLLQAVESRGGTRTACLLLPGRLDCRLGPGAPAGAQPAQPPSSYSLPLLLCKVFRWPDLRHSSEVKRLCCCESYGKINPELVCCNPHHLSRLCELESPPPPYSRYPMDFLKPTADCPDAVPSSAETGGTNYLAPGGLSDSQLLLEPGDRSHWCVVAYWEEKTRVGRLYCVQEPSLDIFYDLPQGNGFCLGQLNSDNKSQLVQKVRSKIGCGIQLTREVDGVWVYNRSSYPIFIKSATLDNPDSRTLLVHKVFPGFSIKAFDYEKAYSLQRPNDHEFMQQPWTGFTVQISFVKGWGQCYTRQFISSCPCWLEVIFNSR
UniProt Q9HCE7: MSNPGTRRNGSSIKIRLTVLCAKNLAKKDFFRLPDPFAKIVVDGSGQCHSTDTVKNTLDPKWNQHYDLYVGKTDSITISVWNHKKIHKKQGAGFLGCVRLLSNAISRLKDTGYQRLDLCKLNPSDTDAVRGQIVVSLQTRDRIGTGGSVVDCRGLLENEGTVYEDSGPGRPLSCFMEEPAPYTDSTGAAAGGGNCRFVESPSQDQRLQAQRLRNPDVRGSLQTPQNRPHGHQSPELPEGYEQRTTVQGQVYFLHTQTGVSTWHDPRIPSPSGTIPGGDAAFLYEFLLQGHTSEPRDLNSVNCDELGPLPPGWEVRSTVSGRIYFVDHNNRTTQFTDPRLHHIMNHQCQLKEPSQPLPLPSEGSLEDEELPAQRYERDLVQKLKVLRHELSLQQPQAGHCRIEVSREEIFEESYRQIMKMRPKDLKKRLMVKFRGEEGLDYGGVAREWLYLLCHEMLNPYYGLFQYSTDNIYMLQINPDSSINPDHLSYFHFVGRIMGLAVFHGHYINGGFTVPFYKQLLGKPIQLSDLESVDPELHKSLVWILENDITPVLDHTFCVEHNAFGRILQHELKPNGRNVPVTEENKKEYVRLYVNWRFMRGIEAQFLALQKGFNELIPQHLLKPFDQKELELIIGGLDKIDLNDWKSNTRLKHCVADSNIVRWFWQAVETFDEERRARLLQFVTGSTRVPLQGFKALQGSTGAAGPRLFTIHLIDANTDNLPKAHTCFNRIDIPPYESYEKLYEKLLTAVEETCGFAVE

Key:
TGFBR1-mCherry-His = biological target: T1, TGFBR1-mCherry-His (UniProt P36897); assay: co-IP; TGFBR1-mCherry-His stably overexpressed in PLC/PRF/5 (with or without NPC1 overexpression) and HepG2 (with or without NPC1 knockdown); immunoprecipitation with anti-His antibody; lysates and immunoprecipitates blotted
T1 sequence: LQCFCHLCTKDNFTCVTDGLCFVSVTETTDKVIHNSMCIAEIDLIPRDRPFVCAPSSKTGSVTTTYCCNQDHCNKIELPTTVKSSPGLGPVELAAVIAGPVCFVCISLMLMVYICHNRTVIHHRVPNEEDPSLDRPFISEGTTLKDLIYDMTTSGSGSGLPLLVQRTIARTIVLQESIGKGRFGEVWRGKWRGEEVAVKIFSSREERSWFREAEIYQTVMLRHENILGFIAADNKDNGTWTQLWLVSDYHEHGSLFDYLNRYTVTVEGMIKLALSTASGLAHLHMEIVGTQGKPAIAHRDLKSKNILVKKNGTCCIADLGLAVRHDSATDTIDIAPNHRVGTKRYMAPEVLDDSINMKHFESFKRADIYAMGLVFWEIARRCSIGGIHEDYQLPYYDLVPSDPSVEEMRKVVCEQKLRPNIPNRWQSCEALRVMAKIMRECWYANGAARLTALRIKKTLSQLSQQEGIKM

TGFBR1-Myc = biological target: T2, TGFBR1-Myc (UniProt P36897); assay: co-IP; PLC/PRF/5 transfected with NPC1-His-Flag and TGFBR1-Myc or TGFBR1 deletion mutants; anti-Myc magnetic beads, immunoblot with Flag or Myc antibody
T2 sequence: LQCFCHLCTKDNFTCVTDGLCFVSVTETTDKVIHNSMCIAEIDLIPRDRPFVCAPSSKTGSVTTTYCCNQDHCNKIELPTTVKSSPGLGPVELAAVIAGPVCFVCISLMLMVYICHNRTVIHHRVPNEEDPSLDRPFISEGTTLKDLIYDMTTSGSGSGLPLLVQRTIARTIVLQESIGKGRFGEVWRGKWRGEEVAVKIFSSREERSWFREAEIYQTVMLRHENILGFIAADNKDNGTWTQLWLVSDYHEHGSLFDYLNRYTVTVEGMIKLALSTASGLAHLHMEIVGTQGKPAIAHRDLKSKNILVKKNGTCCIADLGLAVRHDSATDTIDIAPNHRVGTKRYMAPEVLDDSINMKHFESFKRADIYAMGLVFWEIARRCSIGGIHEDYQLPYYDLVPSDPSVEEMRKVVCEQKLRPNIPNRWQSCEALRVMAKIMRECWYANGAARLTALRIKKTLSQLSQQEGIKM

[1] = biological target: ectopic NPC1 (Niemann-Pick disease type C protein 1), tagged construct of Fig. 5a and Supplementary Fig. 6a (UniProt O15118); assay: co-IP; lysates (NP-40 IP buffer) of transfected PLC/PRF/5 (Fig. 5a) and HEK-293T (Supplementary Fig. 6a) cells; immunoprecipitation with anti-Flag (or GFP) antibody, immunoblot with anti-GFP (or Flag) antibody; 4 °C
[2] = biological target: endogenous NPC1 (human (endogenous in PLC/PRF/5 and HepG2)) (UniProt O15118); assay: co-IP; endogenous proteins; PLC/PRF/5 and HepG2 lysates immunoprecipitated with control IgG or anti-NPC1 antibodies; NP-40 IP buffer, 4 °C
NPC1-His-Flag = NPC1-His-Flag (UniProt O15118); assay: co-IP; PLC/PRF/5 stably overexpressing TGFBR1-mCherry-His, transfected with NPC1-His-Flag or NPC1 deletion mutants; anti-Flag magnetic beads, immunoblot with mCherry or Flag antibody

SMAD7 (from UniProt O15105 1-426)
binding (TGFBR1-mCherry-His): binds

NPC1-HA (stably overexpressed NPC1) (from UniProt O15118 23-1278)
binding (TGFBR1-mCherry-His): binds

SMURF1 (from UniProt Q9HCE7 1-757) (enzyme)
binding (TGFBR1-mCherry-His): binds

NPC1-His-Flag (from UniProt O15118 23-1278)
binding (TGFBR1-Myc): binds

B1: ectopic TGFBR1 (TGF-β receptor type-1), tagged construct of Fig. 5a and Supplementary Fig. 6a (receptor, UniProt P36897 34-503)
chain: LQCFCHLCTKDNFTCVTDGLCFVSVTETTDKVIHNSMCIAEIDLIPRDRPFVCAPSSKTGSVTTTYCCNQDHCNKIELPTTVKSSPGLGPVELAAVIAGPVCFVCISLMLMVYICHNRTVIHHRVPNEEDPSLDRPFISEGTTLKDLIYDMTTSGSGSGLPLLVQRTIARTIVLQESIGKGRFGEVWRGKWRGEEVAVKIFSSREERSWFREAEIYQTVMLRHENILGFIAADNKDNGTWTQLWLVSDYHEHGSLFDYLNRYTVTVEGMIKLALSTASGLAHLHMEIVGTQGKPAIAHRDLKSKNILVKKNGTCCIADLGLAVRHDSATDTIDIAPNHRVGTKRYMAPEVLDDSINMKHFESFKRADIYAMGLVFWEIARRCSIGGIHEDYQLPYYDLVPSDPSVEEMRKVVCEQKLRPNIPNRWQSCEALRVMAKIMRECWYANGAARLTALRIKKTLSQLSQQEGIKM
binding [1]: binds

B2: endogenous TGFBR1 (receptor, UniProt P36897 34-503)
chain: LQCFCHLCTKDNFTCVTDGLCFVSVTETTDKVIHNSMCIAEIDLIPRDRPFVCAPSSKTGSVTTTYCCNQDHCNKIELPTTVKSSPGLGPVELAAVIAGPVCFVCISLMLMVYICHNRTVIHHRVPNEEDPSLDRPFISEGTTLKDLIYDMTTSGSGSGLPLLVQRTIARTIVLQESIGKGRFGEVWRGKWRGEEVAVKIFSSREERSWFREAEIYQTVMLRHENILGFIAADNKDNGTWTQLWLVSDYHEHGSLFDYLNRYTVTVEGMIKLALSTASGLAHLHMEIVGTQGKPAIAHRDLKSKNILVKKNGTCCIADLGLAVRHDSATDTIDIAPNHRVGTKRYMAPEVLDDSINMKHFESFKRADIYAMGLVFWEIARRCSIGGIHEDYQLPYYDLVPSDPSVEEMRKVVCEQKLRPNIPNRWQSCEALRVMAKIMRECWYANGAARLTALRIKKTLSQLSQQEGIKM
binding [2]: binds

B3: TGFBR1-mCherry-His (receptor, UniProt P36897 34-503)
chain: LQCFCHLCTKDNFTCVTDGLCFVSVTETTDKVIHNSMCIAEIDLIPRDRPFVCAPSSKTGSVTTTYCCNQDHCNKIELPTTVKSSPGLGPVELAAVIAGPVCFVCISLMLMVYICHNRTVIHHRVPNEEDPSLDRPFISEGTTLKDLIYDMTTSGSGSGLPLLVQRTIARTIVLQESIGKGRFGEVWRGKWRGEEVAVKIFSSREERSWFREAEIYQTVMLRHENILGFIAADNKDNGTWTQLWLVSDYHEHGSLFDYLNRYTVTVEGMIKLALSTASGLAHLHMEIVGTQGKPAIAHRDLKSKNILVKKNGTCCIADLGLAVRHDSATDTIDIAPNHRVGTKRYMAPEVLDDSINMKHFESFKRADIYAMGLVFWEIARRCSIGGIHEDYQLPYYDLVPSDPSVEEMRKVVCEQKLRPNIPNRWQSCEALRVMAKIMRECWYANGAARLTALRIKKTLSQLSQQEGIKM
binding (NPC1-His-Flag): binds
